Data source: PubChem BioAssay AID686937 (Drosophila RNAi Screening Center, 2013)
In all, the deposit lists about 23,000 reagents; this is an unselected part of those that have a named target and a result. 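Reduced-secretion tags in replicate 1 do not always agree with the z-scores; no criterion for assigning the tags was given.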 A plus sign joins genes that one reagent is predicted to hit. Not stated in the record: the amount of reagent.

Aim: 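Genes in the fly needed for secretion of protein constitutively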 (primary screen)
Cell system: Drosophila S2 cells expressing secreted horseradish peroxidase
Knock-down reagent: long dsRNA against Drosophila genes
Time to read-out: about 5.5 days (5 days dsRNA, then 12 h reporter induction)
Treatment: reporter expression induced after 5 days of dsRNA, read 12 h later; inducer not stated
Detection: 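Chemiluminescent measurement of peroxidase in the medium 12 h after reporter induction, following 5 days of dsRNA, given as a z-score per plate; higher means more secretion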
Direction: z-score: higher = more reporter secreted into medium

predicted target | DRSC id | z-score, replicate 1 | z-score, replicate 2 | z-score, replicate 3 | z-score, replicate 4 | phenotype, replicate 1
fz4 (GeneID 31659) | DRSC18780 | 0.33 | 0.72 | – | – | –
hiw (GeneID 32429) | DRSC20338 | 0.12 | 0.3 | – | – | –
hiw (GeneID 32429) | DRSC20339 | 0.15 | -0.3 | – | – | –
Actn3 (GeneID 44964) | DRSC14106 | 0.07 | 0.11 | – | – | –
CG31076 (GeneID 318582) | DRSC16017 | 0.3 | -0.22 | – | – | –
twr (GeneID 40815) | DRSC12491 | -2.21 | -1.39 | – | – | reduced secretion
tsr (GeneID 37841) | DRSC04718 | -2.19 | -3.71 | – | – | reduced secretion
inaF-B + inaF-D + inaF-C + 1 more | DRSC20342 | 0.08 | 0.02 | – | – | –
CG4768 (GeneID 32666) | DRSC19917 | 0.36 | 0.63 | 0.5 | -0.07 | –
SNF4Agamma (GeneID 42515) | DRSC13461 | -0.56 | -0.3 | – | – | –
SNF4Agamma (GeneID 42515) | DRSC13463 | 0.7 | 0.52 | -0.4 | -0.15 | –
SNF4Agamma (GeneID 42515) | DRSC15879 | -0.04 | 0.16 | – | – | –
SNF4Agamma (GeneID 42515) | DRSC16847 | 0.62 | 0.42 | – | – | –
PNKP (GeneID 40994) | DRSC16512 | 0.43 | 0.38 | – | – | –
CG8159 (GeneID 41040) | DRSC16392 | 0.17 | 0.1 | – | – | –
CG3483 (GeneID 37900) | DRSC04371 | 0.08 | 0.31 | – | – | –
Rpt5 (GeneID 42805) | DRSC16842 | -5.32 | -3.82 | – | – | reduced secretion
CG3032 (GeneID 31648) | DRSC18266 | 0.39 | 0.35 | – | – | –
Ugt303B1 (GeneID 42775) | DRSC15141 | 0.48 | 0.44 | – | – | –
cpx (GeneID 64877) | DRSC11999 | 0.41 | 0.21 | – | – | –
CG14837 (GeneID 38849) | DRSC10207 | 0.31 | 0.15 | – | – | –
CG1724 (GeneID 33097) | DRSC20548 | 0.01 | 0.23 | – | – | –

Taken from above.
CG1724 (GeneID 33097) [DRSC20548], z-score, replicate 2 = 0.23
Under “z-score, replicate 1”, CG14837 (GeneID 38849) [DRSC10207] is entered as 0.31
Result of SNF4Agamma (GeneID 42515) [DRSC13463] under “z-score, replicate 3”: -0.4
Entry for twr (GeneID 40815) [DRSC12491] in “z-score, replicate 2”: -1.39

Next results follow.
predicted target | DRSC id | z-score, replicate 1 | z-score, replicate 2 | z-score, replicate 3 | z-score, replicate 4 | phenotype, replicate 1
UbcE2H (GeneID 31728) | DRSC18221 | 0.32 | 0.51 | – | – | –
Cpr65Au (GeneID 59158) | DRSC22738 | -0.09 | -0.21 | – | – | –
stops (GeneID 43683) | DRSC15095 | 0.1 | 0.34 | – | – | –
stops (GeneID 43683) | DRSC15096 | 0.09 | 0.09 | – | – | –
stops (GeneID 43683) | DRSC15097 | 0.25 | 0.06 | – | – | –
CG13982 (GeneID 33895) | DRSC02314 | 0.02 | 0.32 | – | – | –
hoe1 (GeneID 249663) | DRSC00265 | 0.34 | 0.38 | – | – | –
hoe1 (GeneID 249663) | DRSC00333 | 0.02 | 0.14 | – | – | –
hoe1 (GeneID 249663) | DRSC00353 | 0.74 | 0.51 | – | – | –
CG11241 (GeneID 40492) | DRSC11641 | -0.01 | 0.08 | 0.32 | -0.12 | –
CG11241 (GeneID 40492) | DRSC22165 | -0.97 | 0.13 | – | – | –
